Test results reported in paper PMC13554098.
No constants are given. Whether binding was seen depends on the method and setting. In cells and extracts the contact can be indirect. These calls come from enrichment with a bait or labelling near it, and not all partners need be listed.

B1: snRNP A subunit of the U1 snRNP spliceosome (protein, UniProt P43332 1-216)
chain: MEMLPNQTIYINNLNEKIKKEELKKSLYAIFSQFGQILDIVALKTLKMRGQAFVIFKEIGSASNALRTMQGFPFYDKPMQIAYSKSDSDIVAKIKGTFKERPKKVKPPKPAPGTDEKKDKKKKPSSAENSNPNAQTEQPPNQILFLTNLPEETNEMMLSMLFNQFPGFKEVRLVPNRHDIAFVEFTTELQSNAAKEALQGFKITPTHAMKITFAKK
B2: subunit 1 of TFIIF (protein, UniProt Q05913 1-577)
chain: MSSASKSTPSAASGSSTSAAAAAAASVASGSASSSANVQEFKIRVPKMPKKHHVMRFNATLNVDFAQWRNVKLERENNMKEFRGMEEDQPKFGAGSEYNRDQREEARRKKFGIIARKYRPEAQPWILKVGGKTGKKFKGIREGGVGENAAFYVFTHAPDGAIEAYPLTEWYNFQPIQRYKSLSAEEAEQEFGRRKKVMNYFSLMLRKRLRGDEEEEQDPEEAKLIKAATKKSKELKITDMDEWIDSEDESDSEDEEDKKKKEQEDSDDGKAKGKGKKGADKKKKKRDVDDEAFEESDDGDEEGREMDYDTSSSEDEPDPEAKVDKDMKGVAEEDALRKLLTSDEEEDDEKKSDESDKEDADGEKKKKDKGKDEVSKDKKKKKPTKDDKKGKSNGSGDSSTDFSSDSTDSEDDLSNGPPKKKVVVKDKDKEKEKEKESAASSKVIASSSNANKSRSATPTLSTDASKRKMNSLPSDLTASDTSNSPTSTPAKRPKNEISTSLPTSFSGGKVEDYGITEEAVRRYLKRKPLTATELLTKFKNKKTPVSSDRLVETMTKILKKINPVKHTIQGKMYLWIK
B3: DNA topoisomerase 2 (enzyme, UniProt P15348 1-1447)
chain: MENGNKALSIEQMYQKKSQLEHILLRPDSYIGSVEFTKELMWVYDNSQNRMVQKEISFVPGLYKIFDEILVNAADNKQRDKSMNTIKIDIDPERNMVSVWNNGQGIPVTMHKEQKMYVPTMIFGHLLTSSNYNDDEKKVTGGRNGYGAKLCNIFSTSFTVETATREYKKSFKQTWGNNMGKASDVQIKDFNGTDYTRITFSPDLAKFKMDRLDEDIVALMSRRAYDVAASSKGVSVFLNGNKLGVRNFKDYIDLHIKNTDDDSGPPIKIVHEVANERWEVACCPSDRGFQQVSFVNSIATYKGGRHVDHVVDNLIKQLLEVLKKKNKGGINIKPFQVRNHLWVFVNCLIENPTFDSQTKENMTLQQKGFGSKCTLSEKFINNMSKSGIVESVLAWAKFKAQNDIAKTGGRKSSKIKGIPKLEDANEAGGKNSIKCTLILTEGDSAKSLAVSGLGVIGRDLYGVFPLRGKLLNVREANFKQLSENAEINNLCKIIGLQYKKKYLTEDDLKTLRYGKVMIMTDQDQDGSHIKGLLINFIHTNWPELLRLPFLEEFITPIVKATKKNEELSFYSLPEFEEWKNDTANHHTYNIKYYKGLGTSTSKEAKEYFQDMDRHRILFKYDGSVDDESIVMAFSKKHIESRKVWLTNHMDEVKRRKELGLPERYLYTKGTKSITYADFINLELVLFSNADNERSIPSLVDGLKPGQRKVMFTCFKRNDKREVKVAQLSGSVAEMSAYHHGEVSLQMTIVNLAQNFVGANNINLLEPRGQFGTRLSGGKDCASARYIFTIMSPLTRLIYHPLDDPLLDYQVDDGQKIEPLWYLPIIPMVLVNGAEGIGTGWSTKISNYNPREIMKNLRKMINGQEPSVMHPWYKNFLGRMEYVSDGRYIQTGNIQILSGNRLEISELPVGVWTQNYKENVLEPLSNGTEKVKGIISEYREYHTDTTVRFVISFAPGEFERIHAEEGGFYRVFKLTTTLSTNQMHAFDQNNCLRRFPTAIDILKEYYKLRREYYARRRDFLVGQLTAQADRLSDQARFILEKCEKKLVVENKQRKAMCDELLKRGYRPDPVKEWQRRIKMEDAEQADEEDEEEEEAAPSVSSKAKKEKEVDPEKAFKKLTDVKKFDYLLGMSMWMLTEEKKNELLKQRDTKLSELESLRKKTPEMLWLDDLDALESKLNEVEEKERAEEQGINLKTAKALKGQKSASAKGRKVKSMGGGAGAGDVFPDPDGEPVEFKITEEIIKKMAAAAKVAQAAKEPKKPKEPKEPKVKKEPKGKQIKAEPDASGDEVDEFDAMVEGGSKTSPKAKKAVVKKEPGEKKPRQKKENGGGLKQSKIDFSKAKAKKSDDDVEEVTPRAERPGRRQASKKIDYSSLFSDEEEDGGNVGSDDDGNASDDDSPKRPAKRGREDESSGGAKKKAPPKKRRAVIESDDDDIEIDEDDDDDSDFNC

These binders were tested against double FLAG-tagged Rpb1, largest subunit of RNA polymerase II (Drosophila melanogaster (endogenous in embryos)) (UniProt P04052) (assay: affinity purification with mass spectrometry; FLAG-affinity eluate of Rpb1 from embryo nuclear lysate, trypsin digest, LC-MS/MS (Orbitrap Eclipse), Sequest HT search against the Drosophila proteome).

Row | binding | Binder
1 | binds | B1
2 | binds | B2
3 | binds | B3
